Some of these results come from one statement about several compounds together.
assay: Encapsulation efficiency and loading of cargoes in thin-shell hollow PLGA nanoparticles; assay type: physicochemical; conditions: cargo in thin-shell hollow PLGA nanoparticles

Encapsulation efficiency, above 30%:
sulfo-cy5
AAHAEINEA [OTII, ovalbumin peptide OTII]
SIINFEKL [OTI]

Reference: US20240180845A1, “THIN-SHELL POLYMERIC NANOPARTICLES AND USES THEREOF” (Academia Sinica, priority 2016, published 2024)
